Measured values as given in article PMC10167365.
These are yes or no findings as the source states them, for the method shown. In cells and extracts the contact can be indirect. Some results given as binding are weak or reduced against the parent protein; the word gives no strength.

Amino acid sequences for entries named in this document (tags omitted).
UniProt P46934: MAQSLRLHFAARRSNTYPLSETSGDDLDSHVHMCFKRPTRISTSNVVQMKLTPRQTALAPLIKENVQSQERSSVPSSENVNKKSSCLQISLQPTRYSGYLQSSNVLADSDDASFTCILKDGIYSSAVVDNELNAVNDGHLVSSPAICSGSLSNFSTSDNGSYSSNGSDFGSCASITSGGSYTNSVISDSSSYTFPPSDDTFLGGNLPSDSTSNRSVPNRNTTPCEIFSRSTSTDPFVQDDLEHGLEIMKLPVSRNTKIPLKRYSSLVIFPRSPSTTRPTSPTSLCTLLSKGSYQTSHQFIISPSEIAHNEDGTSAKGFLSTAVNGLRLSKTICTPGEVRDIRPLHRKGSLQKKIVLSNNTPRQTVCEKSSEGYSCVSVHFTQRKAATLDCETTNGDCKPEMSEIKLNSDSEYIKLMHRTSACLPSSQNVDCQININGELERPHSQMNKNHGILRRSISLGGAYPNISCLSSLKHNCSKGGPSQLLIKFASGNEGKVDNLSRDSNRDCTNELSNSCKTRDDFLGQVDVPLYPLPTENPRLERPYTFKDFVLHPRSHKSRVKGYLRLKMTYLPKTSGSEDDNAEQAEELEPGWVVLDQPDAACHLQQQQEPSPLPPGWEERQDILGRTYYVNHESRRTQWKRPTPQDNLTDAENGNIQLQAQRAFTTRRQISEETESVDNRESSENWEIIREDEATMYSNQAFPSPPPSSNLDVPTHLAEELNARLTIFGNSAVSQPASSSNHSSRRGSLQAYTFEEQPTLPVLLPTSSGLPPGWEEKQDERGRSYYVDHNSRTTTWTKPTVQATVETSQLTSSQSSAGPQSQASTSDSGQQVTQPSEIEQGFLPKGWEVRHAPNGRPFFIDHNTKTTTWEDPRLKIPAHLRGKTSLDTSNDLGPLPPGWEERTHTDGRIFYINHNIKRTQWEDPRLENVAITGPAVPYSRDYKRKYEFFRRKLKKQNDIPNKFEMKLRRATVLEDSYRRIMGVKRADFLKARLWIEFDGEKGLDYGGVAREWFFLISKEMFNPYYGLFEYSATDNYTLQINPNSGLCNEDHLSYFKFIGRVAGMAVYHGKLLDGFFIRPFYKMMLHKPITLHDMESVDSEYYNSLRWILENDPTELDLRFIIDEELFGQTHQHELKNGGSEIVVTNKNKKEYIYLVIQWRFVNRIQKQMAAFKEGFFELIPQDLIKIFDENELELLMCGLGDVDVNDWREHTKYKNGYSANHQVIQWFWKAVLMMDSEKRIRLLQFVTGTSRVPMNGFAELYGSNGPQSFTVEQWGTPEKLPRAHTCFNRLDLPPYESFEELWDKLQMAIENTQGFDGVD
UniProt Q01196: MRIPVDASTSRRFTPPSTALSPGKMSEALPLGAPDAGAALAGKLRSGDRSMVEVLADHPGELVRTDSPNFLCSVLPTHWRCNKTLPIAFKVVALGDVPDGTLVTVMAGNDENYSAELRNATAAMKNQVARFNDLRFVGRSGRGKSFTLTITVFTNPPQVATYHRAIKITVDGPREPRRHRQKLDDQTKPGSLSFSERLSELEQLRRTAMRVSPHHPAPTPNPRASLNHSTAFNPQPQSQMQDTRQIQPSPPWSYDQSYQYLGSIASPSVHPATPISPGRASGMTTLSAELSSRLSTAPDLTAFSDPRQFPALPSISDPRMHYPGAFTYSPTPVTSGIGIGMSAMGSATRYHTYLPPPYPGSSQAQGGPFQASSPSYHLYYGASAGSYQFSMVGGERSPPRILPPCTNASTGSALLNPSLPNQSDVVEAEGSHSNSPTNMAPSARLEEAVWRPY

Target: Flag-labeled NEDD4 (UniProt P46934)
Assay: co-IP; Myc-Runx1 and 3xFlag-NEDD4 co-transfected into BMSCs, 48 h; lysate in ice-cold IP buffer; antibodies against Myc or Flag, Protein A/G agarose, 4 °C; western blot

binding: binds
Substance: Myc-tagged Runx1 (from UniProt Q01196 1-453)
